Results deposited as PubChem BioAssay AID1259308 (NCATS, 2017).
Purpose: 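Knock-downs that increase output of a recombinant reporter protein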 (primary screen). System: human HEK293 embryonic kidney cells stably expressing firefly luciferase (HEK-CMV-Luc2-Hygro). Reagent: single siRNA against human genes, 0.8 pmol siRNA per well. Timing: 72 h. Measurement: 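Luciferase light (ONE-Glo) measured on one replicate plate set and viability (CellTiter-Glo) on the other, scaled to a negative control siRNA, with robust z-scores and luciferase per cell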. Reading the numbers: total luciferase, z-score and total luciferase, % of control: higher = more reporter protein produced; luciferase per cell, z-score: higher = more reporter output per viable cell. Hit rule: 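An siRNA counts as active if its total luciferase robust z-score exceeds 3; genes with two or more such siRNAs out of three were retested with fresh siRNAs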. Calls: active = raised luciferase; inactive = no rise.
Shown is one part, drawn at random, of about 59,000 deposited reagents. About 1,510 of them (2.6%) were called active. 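Calls use total luciferase alone and ignore viability, so some active siRNAs may act by altering cell number.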 Entries without a mark were called inactive. Reagents against one gene are numbered here. Not all columns of the deposit are shown.

gene,reagent,"total luciferase, z-score","total luciferase, % of control","luciferase per cell, z-score"
CMPK1,1,0.37,89.2,0.384
CMPK1,2,1.2,106,0.156
CMPK1,3,-0.958,62.8,-0.477
MTCH1,1,-1.48,52.4,-1.13
MTCH1,2,-1.12,59.7,-1.56
MTCH1,3,-1.16,58.9,-0.0671
OMG,1,0.922,100,0.697
OMG,2,0.138,84.6,-0.158
OMG,3,-1.38,54.4,-1.75

Next part (2 carried over from the part before).
gene,reagent,"total luciferase, z-score","total luciferase, % of control","luciferase per cell, z-score"
OMG,2,0.138,84.6,-0.158
OMG,3,-1.38,54.4,-1.75
LAMP5,1,0.162,85.1,0.732
LAMP5,2,-0.508,71.8,0.411
LAMP5,3,0.283,87.5,-0.00466
NEU3,1,0.584,93.5,0.406
NEU3,2,-0.533,71.3,0.865
NEU3,3,1.34,109,1.96
KIF16B,1,-0.865,64.7,-1.04
KIF16B,2,0.434,90.5,0.447
KIF16B,3,-0.549,71,-0.343
LRSAM1,1,1.93,120,1.21
LRSAM1,2,0.852,98.8,1.05
LRSAM1,3,0.844,98.7,0.439
TXNL1,1,-0.158,78.7,-0.112
TXNL1,2,0.266,87.2,1.33
TXNL1,3,-0.763,66.7,-1.7
